Experimental data as given in patent US20180320217A1, “METHODS FOR SAMPLING AND MEASURING ORAL LAVAGE PROTEINS” (The Procter & Gamble Company, priority 2017, published 2018).

B1: CLCB_HUMAN (protein, UniProt P09497 1-229, looked up)
Clathrin light chain B: MADDFGFFSSSESGAPEAAEEDPAAAFLAQQESEIAGIENDEGFGAPAGSHAAPAQPGPTSGAGSEDMGTTVNGDVFQEANGPADGYAAIAQADRLTQEPESIRKWREEQRKRLQELDAASKVTEQEWREKAKKDLEEWNQRQSEQVEKNKINNRIADKAFYQQPDADIIGYVASEEAFVKESKEETPGTEWEKVAQLCDFNPKSSKQCKDVSRLRSVLMSLKQTPLSR
B2: ALDOA_HUMAN (protein, UniProt P04075 2-364, looked up)
Fructose-bisphosphate …: PYQYPALTPEQKKELSDIAHRIVAPGKGILAADESTGSIAKRLQSIGTENTEENRRFYRQLLLTADDRVNPCIGGVILFHETLYQKADDGRPFPQVIKSKGGVVGIKVDKGVVPLAGTNGETTTQGLDGLSERCAQYKKDGADFAKWRCVLKIGEHTPSALAIMENANVLARYASICQQNGIVPIVEPEILPDGDHDLKRCQYVTEKVLAAVYKALSDHHIYLEGTLLKPNMVTPGHACTQKFSHEEIAMATVTALRRTVPPAVTGITFLSGGQSEEEASINLNAINKCPLLKPWALTFSYGRALQASALKAWGGKKENLKAAQEEYVKRALANSLACQGKYTPSGQAGAAASESLFVSNHAY
B3: EF1A1_HUMAN (protein, UniProt P68104 2-462, looked up)
Elongation factor 1-alpha 1: GKEKTHINIVVIGHVDSGKSTTTGHLIYKCGGIDKRTIEKFEKEAAEMGKGSFKYAWVLDKLKAERERGITIDISLWKFETSKYYVTIIDAPGHRDFIKNMITGTSQADCAVLIVAAGVGEFEAGISKNGQTREHALLAYTLGVKQLIVGVNKMDSTEPPYSQKRYEEIVKEVSTYIKKIGYNPDTVAFVPISGWNGDNMLEPSANMPWFKGWKVTRKDGNASGTTLLEALDCILPPTRPTDKPLRLPLQDVYKIGGIGTVPVGRVETGVLKPGMVVTFAPVNVTTEVKSVEMHHEALSEALPGDNVGFNVKNVSVKDVRRGNVAGDSKNDPPMEAAGFTAQVIILNHPGQISAGYAPVLDCHTAHIACKFAELKEKIDRRSGKKLEDGPKFLKSGDAAIVDMVPGKPMCVESFSDYPPLGRFAVRDMRQTVAVGVIKAVDKKAAGAGKVTKSAQKAQKAK
B4: CYTB_HUMAN (protein, UniProt P04080 1-98, looked up)
Cystatin-B: MMCGAPSATQPATAETQHIADQVRSQLEEKENKKFPVFKAVSFKSQVVAGTNYFIKVHVGDEDFVHLRVFQSLPHENKPLTLSNYQTNKAKHDELTYF
B5: GSTP1_HUMAN (protein, UniProt P09211 2-210, looked up)
Glutathione S-transferase P: PPYTVVYFPVRGRCAALRMLLADQGQSWKEEVVTVETWQEGSLKASCLYGQLPKFQDGDLTLYQSNTILRHLGRTLGLYGKDQQEAALVDMVNDGVEDLRCKYISLIYTNYEAGKDDYVKALPGQLKPFETLLSQNQGGKTFIVGDQISFADYNLLDLLLIHEVLAPGCLDAFPLLSAYVGRLSARPKLKAFLASPEYVNLPINGNGKQ
B6: GLU2B_HUMAN (protein, UniProt P14314 15-528, looked up)
Glucosidase 2 subunit beta: VEVKRPRGVSLTNHHFYDESKPFTCLDGSATIPFDQVNDDYCDCKDGSDEPGTAACPNGSFHCTNTGYKPLYIPSNRVNDGVCDCCDGTDEYNSGVICENTCKEKGRKERESLQQMAEVTREGFRLKKILIEDWKKAREEKQKKLIELQAGKKSLEDQVEMLRTVKEEAEKPEREAKEQHQKLWEEQLAAAKAQQEQELAADAFKELDDDMDGTVSVTELQTHPELDTDGDGALSEAEAQALLSGDTQTDATSFYDRVWAAIRDKYRSEALPTDLPAPSAPDLTEPKEEQPPVPSSPTEEEEEEEEEEEEEAEEEEEEEDSEEAPPPLSPPQPASPAEEDKMPPYDEQTQAFIDAAQEARNKFEEAERSLKDMEESIRNLEQEISFDFGPNGEFAYLYSQCYELTTNEYVYRLCPFKLVSQKPKLGGSPTSLGTWGSWIGPDHDKFSAMKYEQGTGCWQGPNRSTTVRLLCGKETMVTSTTEPSRCEYLMELMTPAACPEPPPEAPTEDDHDEL
B7: ERO1A_HUMAN (protein, UniProt Q96HE7 24-468, looked up)
ERO1-like protein alpha: EEQPPETAAQRCFCQVSGYLDDCTCDVETIDRFNNYRLFPRLQKLLESDYFRYYKVNLKRPCPFWNDISQCGRRDCAVKPCQSDEVPDGIKSASYKYSEEANNLIEECEQAERLGAVDESLSEETQKAVLQWTKHDDSSDNFCEADDIQSPEAEYVDLLLNPERYTGYKGPDAWKIWNVIYEENCFKPQTIKRPLNPLASGQGTSEENTFYSWLEGLCVEKRAFYRLISGLHASINVHLSARYLLQETWLEKKWGHNITEFQQRFDGILTEGEGPRRLKNLYFLYLIELRALSKVLPFFERPDFQLFTGNKIQDEENKMLLLEILHEIKSFPLHFDENSFFAGDKKEAHKLKEDFRLHFRNISRIMDCVGCFKCRLWGKLQTQGLGTALKILFSEKLIANMPESGPSYEFHLTRQEIVSLFNAFGRISTSVKELENFRNLLQNIH
B8: ECM1_HUMAN (protein, UniProt Q16610 20-540, looked up)
Extracellular matrix protein 1: ASEGGFTATGQRQLRPEHFQEVGYAAPPSPPLSRSLPMDHPDSSQHGPPFEGQSQVQPPPSQEATPLQQEKLLPAQLPAEKEVGPPLPQEAVPLQKELPSLQHPNEQKEGTPAPFGDQSHPEPESWNAAQHCQQDRSQGGWGHRLDGFPPGRPSPDNLNQICLPNRQHVVYGPWNLPQSSYSHLTRQGETLNFLEIGYSRCCHCRSHTNRLECAKLVWEEAMSRFCEAEFSVKTRPHWCCTRQGEARFSCFQEEAPQPHYQLRACPSHQPDISSGLELPFPPGVPTLDNIKNICHLRRFRSVPRNLPATDPLQRELLALIQLEREFQRCCRQGNNHTCTWKAWEDTLDKYCDREYAVKTHHHLCCRHPPSPTRDECFARRAPYPNYDRDILTIDIGRVTPNLMGHLCGNQRVLTKHKHIPGLIHNMTARCCDLPFPEQACCAEEEKLTFINDLCGPRRNIWRDPALCCYLSPGDEQVNCFNINYLRNVALVSGDTENAKGQGEQGSTGGTNISSTSEPKEE
B9: COR1A_HUMAN (protein, UniProt P31146 2-461, looked up)
Coronin-1A: SRQVVRSSKFRHVFGQPAKADQCYEDVRVSQTTWDSGFCAVNPKFVALICEASGGGAFLVLPLGKTGRVDKNAPTVCGHTAPVLDIAWCPHNDNVIASGSEDCTVMVWEIPDGGLMLPLREPVVTLEGHTKRVGIVAWHTTAQNVLLSAGCDNVIMVWDVGTGAAMLTLGPEVHPDTIYSVDWSRDGGLICTSCRDKRVRIIEPRKGTVVAEKDRPHEGTRPVRAVFVSEGKILTTGFSRMSERQVALWDTKHLEEPLSLQELDTSSGVLLPFFDPDTNIVYLCGKGDSSIRYFEITSEAPFLHYLSMFSSKESQRGMGYMPKRGLEVNKCEIARFYKLHERRCEPIAMTVPRKSDLFQEDLYPPTAGPDPALTAEEWLGGRDAGPLLISLKDGYVPPKSRELRVNRGLDTGRRRAAPEASGTPSSDAVSRLEEEMRKLQATVQELQKRLDRLEETVQAK
B10: GMDS_HUMAN (protein, UniProt O60547 2-372, looked up)
GDP-mannose 4,6 dehydratase: AHAPARCPSARGSGDGEMGKPRNVALITGITGQDGSYLAEFLLEKGYEVHGIVRRSSSFNTGRIEHLYKNPQAHIEGNMKLHYGDLTDSTCLVKIINEVKPTEIYNLGAQSHVKISFDLAEYTADVDGVGTLRLLDAVKTCGLINSVKFYQASTSELYGKVQEIPQKETTPFYPRSPYGAAKLYAYWIVVNFREAYNLFAVNGILFNHESPRRGANFVTRKISRSVAKIYLGQLECFSLGNLDAKRDWGHAKDYVEAMWLMLQNDEPEDFVIATGEVHSVREFVEKSFLHIGKTIVWEGKNENEVGRCKETGKVHVTVDLKYYRPTEVDFLQGDCTKAKQKLNWKPRVAFDELVREMVHADVELMRTNPNA
B11: CYTA_HUMAN (protein, UniProt P01040 1-98, looked up)
Cystatin-A: MIPGGLSEAKPATPEIQEIVDKVKPQLEEKTNETYGKLEAVQYKTQVVAGTNYYIKVRAGDNKYMHLKVFKSLPGQNEDLVLTGYQVDKNKDDELTGF
B12: DMKN_HUMAN (protein, UniProt Q6E0U4 22-476, looked up)
Dermokine: GPLQSGEESTGTNIGEALGHGLGDALSEGVGKAIGKEAGGAAGSKVSEALGQGTREAVGTGVRQVPGFGVADALGNRVGEAAHALGNTGHEIGRQAEDVIRHGADAVRGSWQGVPGHNGAWETSGGHGIFGSQGGLGGQGQGNPGGLGTPWVHGYPGNSAGSFGMNPQGAPWGQGGNGGPPNFGTNTQGAVAQPGYGSVRASNQNEGCTNPPPSGSGGGSSNSGGGSGSQSGSSGSGSNGDNNNGSSSGGSSSGSSSGGSSGGSSGGSSGNSGGSRGDSGSESSWGSSTGSSSGNHGGSGGGNGHKPGCEKPGNEARGSGESGIQNSETSPGMFNFDTFWKNFKSKLGFINWDAINKNQVPPPSTRALLYFSRLWEDFKQNTPFLNWKAIIEGADASSLQKRAGRDDQNYNYNQHAYPTAYGGKYSVKTPAKGGVSPSSSASRVQPGLLQWVKFW

The molecules below were run on peptides in gingival brush samples (assay: Protein and peptide profiling of gingival brush samples (LC-MS/MS), TABLE 23). Settings: peptide abundance, gingival brush samples, control regimen, baseline.
Format: in vivo, human
B1 was tested, and the “Mean Cntl Bsl” value was 945.1. B2 was tested, and the “Mean Cntl Bsl” value was 48319.3. B3 was tested, and the “Mean Cntl Bsl” value was 946.2. In the case of B4, the “Mean Cntl Bsl” value is reported as 402767.3. B5 was tested, and the “Mean Cntl Bsl” value was 2925.0. B6 was tested, and the “Mean Cntl Bsl” value was 850.1. B7 was tested, and the “Mean Cntl Bsl” value was 58705.8. With B8 the “Mean Cntl Bsl” value was 13172.4. In the case of B9, the “Mean Cntl Bsl” value is reported as 15288.9. With B10 the “Mean Cntl Bsl” value was 336.8. With B11 the “Mean Cntl Bsl” value was 8213.5. With B12 the “Mean Cntl Bsl” value was 7330.6.

Same assay, conditions: peptide abundance, gingival brush samples, control regimen, week 3
With B1 the “Mean Cntl Wk3” value was 3203.2. B2 was tested, and the “Mean Cntl Wk3” value was 73986.7. In the case of B3, the “Mean Cntl Wk3” value is reported as 2257.5. B4 was tested, and the “Mean Cntl Wk3” value was 632435.7. In the case of B5, the “Mean Cntl Wk3” value is reported as 7563.2. B6 was tested, and the “Mean Cntl Wk3” value was 1573.2. B7 was tested, and the “Mean Cntl Wk3” value was 87660.3. B8 was tested, and the “Mean Cntl Wk3” value was 24637.4. B9 was tested, and the “Mean Cntl Wk3” value was 19325.5. With B10 the “Mean Cntl Wk3” value was 1052.3. For B11, the “Mean Cntl Wk3” value was 14863.4. For B12, the “Mean Cntl Wk3” value was 7536.0.

Same assay, conditions: peptide abundance, gingival brush samples, treatment regimen, baseline
B1 was tested, and the “Mean TrtBsl” value was 1495.8. With B2 the “Mean TrtBsl” value was 46120.0. B3 was tested, and the “Mean TrtBsl” value was 873.0. B4 was tested, and the “Mean TrtBsl” value was 350500.9. In the case of B5, the “Mean TrtBsl” value is reported as 4071.6. B6 was tested, and the “Mean TrtBsl” value was 828.0. For B7, the “Mean TrtBsl” value was 50809.3. In the case of B8, the “Mean TrtBsl” value is reported as 11406.6. For B10, the “Mean TrtBsl” value was 669.6. B11 was tested, and the “Mean TrtBsl” value was 14851.3. With B12 the “Mean TrtBsl” value was 3281.4.

Same assay, conditions: peptide abundance, gingival brush samples, treatment regimen, week 3
In the case of B1, the “Mean TrtWk3” value is reported as 3625.8. With B2 the “Mean TrtWk3” value was 95453.7. B3 was tested, and the “Mean TrtWk3” value was 2785.9. For B4, the “Mean TrtWk3” value was 686593.2. In the case of B5, the “Mean TrtWk3” value is reported as 9416.8. With B6 the “Mean TrtWk3” value was 1472.3. B7 was tested, and the “Mean TrtWk3” value was 89111.5. In the case of B8, the “Mean TrtWk3” value is reported as 24555.1. For B9, the “Mean TrtWk3” value was 16177.7. B10 was tested, and the “Mean TrtWk3” value was 3459.8. For B11, the “Mean TrtWk3” value was 20781.0. In the case of B12, the “Mean TrtWk3” value is reported as 7486.9.
